# From PMC8466936
# No constants are given. Whether binding was seen depends on the method and setting. In cells and extracts the contact can be indirect. Some entries that bind do so weakly or less than the wild type. For some assays here: Where a sequence is shown, tags or fusion partners need not be part of it.
# T1: FLAG-CHIP WT (C-terminus of HSC70-interacting protein, encoded by STUB1) (human), Q9UNE7
# T1 chain: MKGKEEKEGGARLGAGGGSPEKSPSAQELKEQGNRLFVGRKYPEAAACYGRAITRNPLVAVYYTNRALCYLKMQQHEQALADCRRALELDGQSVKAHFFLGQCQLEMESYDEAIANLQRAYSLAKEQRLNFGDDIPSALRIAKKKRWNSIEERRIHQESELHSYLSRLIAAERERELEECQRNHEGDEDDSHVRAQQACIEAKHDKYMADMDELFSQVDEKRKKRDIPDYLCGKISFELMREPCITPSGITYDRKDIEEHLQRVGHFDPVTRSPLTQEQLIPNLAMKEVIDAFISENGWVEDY
# Legend:
# [1] = molecular target: FLAG-CHIP Δ278–303 (human) (UniProt Q9UNE7); assay: co-IP; dimerization assay: SH-SY5Y and BE2-M17 cells co-transfected with CHIP-Myc and FLAG-CHIP WT or mutants for 48 h, NP40 lysis buffer, 1 mg lysate, IP with anti-FLAG or anti-Myc overnight at 4 °C, protein A-Sepharose; blotted with anti-Myc or anti-FLAG
# [2] = molecular target: T1, FLAG-CHIP WT (C-terminus of …); assay: as above; conditions: remark: other sources report otherwise
binding [1],binding [2],Molecule
binds,–,Myc-tagged wild type CHIP (CHIP WT-Myc) (from UniProt Q9UNE7-1 1-303)
–,binds,"Myc-tagged wild type CHIP (CHIP WT-Myc), Q9UNE7-1 1-303 (protein) MKGKEEKEGGARLGAGGGSPEKSPSAQELKEQGNRLFVGRKYPEAAACYGRAITRNPLVAVYYTNRALCYLKMQQHEQALADCRRALELDGQSVKAHFFLGQCQLEMESYDEAIANLQRAYSLAKEQRLNFGDDIPSALRIAKKKRWNSIEERRIHQESELHSYLSRLIAAERERELEECQRNHEGDEDDSHVRAQQACIEAKHDKYMADMDELFSQVDEKRKKRDIPDYLCGKISFELMREPCITPSGITYDRKDIEEHLQRVGHFDPVTRSPLTQEQLIPNLAMKEVIDAFISENGWVEDY"
